# Measured values reported in article PMC12627648.
# By UniProt entry, the sequences of proteins in these tests, tags left out. Residues count along the entry.
# UniProt Q9NZC2, residues 19-230: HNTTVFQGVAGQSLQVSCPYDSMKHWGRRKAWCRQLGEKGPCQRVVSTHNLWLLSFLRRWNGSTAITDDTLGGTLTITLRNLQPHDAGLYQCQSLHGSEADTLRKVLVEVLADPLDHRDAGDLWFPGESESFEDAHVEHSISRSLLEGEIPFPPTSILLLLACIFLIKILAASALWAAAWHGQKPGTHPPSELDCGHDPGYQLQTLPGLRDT
# UniProt P42224: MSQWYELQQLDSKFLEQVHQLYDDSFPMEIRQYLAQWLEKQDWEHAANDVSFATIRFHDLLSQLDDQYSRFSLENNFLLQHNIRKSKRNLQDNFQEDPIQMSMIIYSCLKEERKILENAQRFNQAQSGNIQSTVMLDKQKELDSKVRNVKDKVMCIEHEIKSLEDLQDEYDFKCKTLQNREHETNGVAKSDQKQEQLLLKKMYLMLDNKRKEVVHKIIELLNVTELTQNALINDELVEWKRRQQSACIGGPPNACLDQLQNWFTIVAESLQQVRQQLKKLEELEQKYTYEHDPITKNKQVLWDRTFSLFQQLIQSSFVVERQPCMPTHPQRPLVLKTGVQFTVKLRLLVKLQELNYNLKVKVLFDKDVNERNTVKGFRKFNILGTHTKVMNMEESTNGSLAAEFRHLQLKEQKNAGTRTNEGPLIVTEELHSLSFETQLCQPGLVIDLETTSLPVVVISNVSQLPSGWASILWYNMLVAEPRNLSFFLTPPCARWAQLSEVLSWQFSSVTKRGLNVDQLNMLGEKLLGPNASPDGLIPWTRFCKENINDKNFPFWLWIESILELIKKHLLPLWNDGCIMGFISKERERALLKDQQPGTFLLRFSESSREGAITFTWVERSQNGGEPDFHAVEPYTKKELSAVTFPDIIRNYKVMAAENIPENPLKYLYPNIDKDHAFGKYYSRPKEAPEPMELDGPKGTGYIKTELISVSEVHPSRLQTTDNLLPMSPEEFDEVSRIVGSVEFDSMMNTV
# These are yes or no findings as the source states them, for the method shown. In cells and extracts the contact can be indirect. Here binding means that the protein was enriched with, or labelled near, the bait; the list need not be complete.
# Target: triggering receptor expressed on myeloid cells 2 (TREM2), endogenous in TAMs (human (endogenous in THP-1-induced TAMs)) (UniProt Q9NZC2)
# Assay: affinity purification with mass spectrometry; anti-TREM2 antibody immunoprecipitates from TAMs, separated by SDS-PAGE, gel slices hydrolysed, Orbitrap Elite, search against UniProt
substance,measurement,value
"signal transducer and activator of transcription 1 (STAT1), endogenous in TAMs (from UniProt P42224 1-750)",binding,binds
